# From the supplement of paper PMC7666118
# By UniProt entry, the sequences of proteins in these tests, tags left out. Where a name states a change or a piece, a line headed by the entry shows the natural chain unless it says otherwise.
# UniProt Q9BSU1: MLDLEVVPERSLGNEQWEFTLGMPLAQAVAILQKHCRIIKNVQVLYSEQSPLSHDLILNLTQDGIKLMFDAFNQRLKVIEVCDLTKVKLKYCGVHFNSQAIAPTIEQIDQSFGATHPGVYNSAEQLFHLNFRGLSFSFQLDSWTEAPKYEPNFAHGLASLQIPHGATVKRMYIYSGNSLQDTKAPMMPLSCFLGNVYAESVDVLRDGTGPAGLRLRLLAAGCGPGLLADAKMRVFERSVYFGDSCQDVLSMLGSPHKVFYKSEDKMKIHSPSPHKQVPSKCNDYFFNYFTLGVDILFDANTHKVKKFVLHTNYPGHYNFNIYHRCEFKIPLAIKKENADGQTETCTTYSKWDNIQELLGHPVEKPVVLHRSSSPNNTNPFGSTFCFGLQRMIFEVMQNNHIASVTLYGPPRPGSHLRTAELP
# UniProt P20810: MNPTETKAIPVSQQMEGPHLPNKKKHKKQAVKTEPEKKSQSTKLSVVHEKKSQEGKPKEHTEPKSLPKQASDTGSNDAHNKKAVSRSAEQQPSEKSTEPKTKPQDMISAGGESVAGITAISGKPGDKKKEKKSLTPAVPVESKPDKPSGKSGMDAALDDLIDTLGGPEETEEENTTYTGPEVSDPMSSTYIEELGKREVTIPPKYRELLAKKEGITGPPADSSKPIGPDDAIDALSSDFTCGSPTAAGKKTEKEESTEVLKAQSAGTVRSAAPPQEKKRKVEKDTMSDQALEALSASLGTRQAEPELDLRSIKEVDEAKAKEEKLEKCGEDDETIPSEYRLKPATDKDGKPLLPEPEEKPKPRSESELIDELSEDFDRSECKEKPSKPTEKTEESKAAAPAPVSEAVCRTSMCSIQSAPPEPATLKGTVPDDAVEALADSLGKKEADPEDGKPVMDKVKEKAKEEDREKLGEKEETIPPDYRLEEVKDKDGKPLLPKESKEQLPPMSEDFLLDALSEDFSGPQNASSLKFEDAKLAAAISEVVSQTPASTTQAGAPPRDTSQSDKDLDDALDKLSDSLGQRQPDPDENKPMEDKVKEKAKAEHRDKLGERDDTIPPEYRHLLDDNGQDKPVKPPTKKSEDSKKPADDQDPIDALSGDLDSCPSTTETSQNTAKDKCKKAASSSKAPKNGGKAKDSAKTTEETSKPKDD
# UniProt Q9H0W8: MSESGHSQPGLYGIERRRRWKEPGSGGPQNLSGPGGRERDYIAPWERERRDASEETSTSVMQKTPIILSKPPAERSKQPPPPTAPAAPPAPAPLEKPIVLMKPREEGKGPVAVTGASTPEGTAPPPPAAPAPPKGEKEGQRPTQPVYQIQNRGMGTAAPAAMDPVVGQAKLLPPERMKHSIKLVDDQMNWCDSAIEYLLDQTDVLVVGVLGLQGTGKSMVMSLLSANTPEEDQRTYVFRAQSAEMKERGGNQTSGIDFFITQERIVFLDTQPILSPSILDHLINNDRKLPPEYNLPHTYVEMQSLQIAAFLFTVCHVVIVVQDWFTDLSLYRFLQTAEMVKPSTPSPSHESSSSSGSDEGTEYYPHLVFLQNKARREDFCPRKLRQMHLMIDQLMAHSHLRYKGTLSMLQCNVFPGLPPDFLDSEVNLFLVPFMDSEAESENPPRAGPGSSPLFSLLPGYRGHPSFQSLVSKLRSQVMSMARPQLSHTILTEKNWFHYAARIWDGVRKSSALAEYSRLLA
# UniProt Q6UW56: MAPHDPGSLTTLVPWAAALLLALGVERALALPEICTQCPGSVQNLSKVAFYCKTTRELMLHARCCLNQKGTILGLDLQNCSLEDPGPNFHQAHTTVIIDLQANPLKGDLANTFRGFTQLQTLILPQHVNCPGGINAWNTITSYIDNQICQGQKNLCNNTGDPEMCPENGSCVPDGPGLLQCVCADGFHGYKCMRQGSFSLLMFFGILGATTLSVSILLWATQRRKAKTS
# UniProt Q08AG7, whole entry: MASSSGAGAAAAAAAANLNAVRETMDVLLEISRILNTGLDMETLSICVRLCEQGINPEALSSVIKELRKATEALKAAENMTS
# UniProt Q1ED39: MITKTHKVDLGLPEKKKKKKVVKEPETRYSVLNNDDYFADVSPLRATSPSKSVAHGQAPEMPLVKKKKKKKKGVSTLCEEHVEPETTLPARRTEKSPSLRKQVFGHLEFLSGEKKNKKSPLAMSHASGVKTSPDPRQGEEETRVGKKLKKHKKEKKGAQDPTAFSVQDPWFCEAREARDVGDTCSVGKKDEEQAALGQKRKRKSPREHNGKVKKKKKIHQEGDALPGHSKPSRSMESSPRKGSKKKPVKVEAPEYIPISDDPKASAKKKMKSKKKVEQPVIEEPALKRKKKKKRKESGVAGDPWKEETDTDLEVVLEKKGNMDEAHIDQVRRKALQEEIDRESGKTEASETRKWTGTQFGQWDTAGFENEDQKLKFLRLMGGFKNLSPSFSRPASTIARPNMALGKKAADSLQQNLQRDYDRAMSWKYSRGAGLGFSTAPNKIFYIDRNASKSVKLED
# UniProt Q96K31: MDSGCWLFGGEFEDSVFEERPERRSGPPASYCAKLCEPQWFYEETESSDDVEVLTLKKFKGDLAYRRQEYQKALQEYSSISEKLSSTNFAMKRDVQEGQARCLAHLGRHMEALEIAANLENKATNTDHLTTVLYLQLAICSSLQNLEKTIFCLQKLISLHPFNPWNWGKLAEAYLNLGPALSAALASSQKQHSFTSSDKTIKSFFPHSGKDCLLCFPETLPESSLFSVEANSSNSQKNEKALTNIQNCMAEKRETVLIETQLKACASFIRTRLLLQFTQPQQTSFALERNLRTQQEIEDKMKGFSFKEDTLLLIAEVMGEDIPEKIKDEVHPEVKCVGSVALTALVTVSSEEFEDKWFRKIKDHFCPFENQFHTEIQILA
# UniProt Q6ZNW5: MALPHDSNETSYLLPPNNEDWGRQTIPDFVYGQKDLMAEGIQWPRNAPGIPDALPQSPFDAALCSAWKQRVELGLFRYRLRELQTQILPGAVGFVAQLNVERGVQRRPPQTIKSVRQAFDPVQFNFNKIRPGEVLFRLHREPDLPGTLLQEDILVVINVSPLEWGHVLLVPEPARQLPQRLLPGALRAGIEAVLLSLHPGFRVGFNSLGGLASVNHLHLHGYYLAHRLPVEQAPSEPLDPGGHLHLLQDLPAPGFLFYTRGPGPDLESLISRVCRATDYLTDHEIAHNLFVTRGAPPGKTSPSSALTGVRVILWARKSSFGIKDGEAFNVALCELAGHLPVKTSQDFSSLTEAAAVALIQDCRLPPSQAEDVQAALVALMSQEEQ
# UniProt P16152: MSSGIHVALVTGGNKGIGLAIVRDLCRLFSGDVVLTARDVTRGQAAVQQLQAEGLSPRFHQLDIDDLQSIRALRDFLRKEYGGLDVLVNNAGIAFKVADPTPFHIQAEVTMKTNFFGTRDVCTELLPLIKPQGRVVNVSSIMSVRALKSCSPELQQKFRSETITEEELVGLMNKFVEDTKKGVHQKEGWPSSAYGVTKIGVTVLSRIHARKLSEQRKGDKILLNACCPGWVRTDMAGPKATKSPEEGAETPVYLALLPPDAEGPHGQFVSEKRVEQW
# UniProt Q9Y2V0: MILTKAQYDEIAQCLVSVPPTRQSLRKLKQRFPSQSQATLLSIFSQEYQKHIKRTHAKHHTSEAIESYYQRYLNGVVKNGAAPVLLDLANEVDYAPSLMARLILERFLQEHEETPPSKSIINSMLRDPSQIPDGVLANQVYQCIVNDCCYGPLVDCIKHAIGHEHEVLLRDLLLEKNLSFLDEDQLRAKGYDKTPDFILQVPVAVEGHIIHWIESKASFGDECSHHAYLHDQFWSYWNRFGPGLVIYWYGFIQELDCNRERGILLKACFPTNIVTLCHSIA
# UniProt Q9BVV7: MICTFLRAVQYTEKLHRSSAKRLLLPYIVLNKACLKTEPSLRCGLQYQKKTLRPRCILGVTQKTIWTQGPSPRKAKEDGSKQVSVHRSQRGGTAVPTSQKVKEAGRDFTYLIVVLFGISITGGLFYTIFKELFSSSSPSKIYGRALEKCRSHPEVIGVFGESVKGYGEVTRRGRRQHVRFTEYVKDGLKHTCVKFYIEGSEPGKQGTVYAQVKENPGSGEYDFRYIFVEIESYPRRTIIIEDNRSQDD
# UniProt Q9H425: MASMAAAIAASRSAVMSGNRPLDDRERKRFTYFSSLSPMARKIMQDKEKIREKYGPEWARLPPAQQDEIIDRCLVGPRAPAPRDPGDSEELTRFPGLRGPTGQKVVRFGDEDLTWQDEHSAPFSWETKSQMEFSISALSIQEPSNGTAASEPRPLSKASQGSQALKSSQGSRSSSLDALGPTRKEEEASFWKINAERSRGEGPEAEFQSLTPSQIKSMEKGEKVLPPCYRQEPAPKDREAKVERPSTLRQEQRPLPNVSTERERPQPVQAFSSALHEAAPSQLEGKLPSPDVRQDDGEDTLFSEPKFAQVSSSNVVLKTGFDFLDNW
# UniProt O95568: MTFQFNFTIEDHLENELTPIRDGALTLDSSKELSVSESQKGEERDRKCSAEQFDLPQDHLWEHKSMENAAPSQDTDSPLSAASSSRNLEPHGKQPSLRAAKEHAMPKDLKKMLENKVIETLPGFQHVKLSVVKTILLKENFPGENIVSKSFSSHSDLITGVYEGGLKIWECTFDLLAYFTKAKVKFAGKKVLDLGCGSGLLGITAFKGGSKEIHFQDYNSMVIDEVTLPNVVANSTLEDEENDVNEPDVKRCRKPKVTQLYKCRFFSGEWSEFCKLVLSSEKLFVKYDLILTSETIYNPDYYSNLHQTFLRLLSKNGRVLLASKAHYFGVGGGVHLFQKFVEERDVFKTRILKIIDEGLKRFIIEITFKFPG
# UniProt P16383: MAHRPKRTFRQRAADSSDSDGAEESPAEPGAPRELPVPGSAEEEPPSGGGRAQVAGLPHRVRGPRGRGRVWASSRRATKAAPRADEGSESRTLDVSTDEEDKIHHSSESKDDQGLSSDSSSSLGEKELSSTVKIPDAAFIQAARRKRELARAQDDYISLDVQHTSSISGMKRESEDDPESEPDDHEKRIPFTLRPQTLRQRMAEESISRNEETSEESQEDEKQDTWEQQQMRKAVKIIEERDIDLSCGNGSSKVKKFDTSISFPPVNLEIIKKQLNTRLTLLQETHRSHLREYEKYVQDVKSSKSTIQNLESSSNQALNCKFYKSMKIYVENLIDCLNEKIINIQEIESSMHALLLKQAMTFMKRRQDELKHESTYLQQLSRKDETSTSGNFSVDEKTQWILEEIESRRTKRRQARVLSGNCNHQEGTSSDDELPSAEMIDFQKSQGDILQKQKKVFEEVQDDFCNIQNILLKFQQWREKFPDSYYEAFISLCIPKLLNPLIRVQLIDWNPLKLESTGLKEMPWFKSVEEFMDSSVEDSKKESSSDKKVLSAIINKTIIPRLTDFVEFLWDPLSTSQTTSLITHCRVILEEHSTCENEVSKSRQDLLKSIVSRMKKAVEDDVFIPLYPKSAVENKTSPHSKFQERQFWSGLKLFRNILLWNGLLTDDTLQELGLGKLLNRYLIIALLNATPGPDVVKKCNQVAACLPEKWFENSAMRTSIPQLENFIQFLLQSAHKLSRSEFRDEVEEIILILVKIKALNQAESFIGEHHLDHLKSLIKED
# UniProt Q14790: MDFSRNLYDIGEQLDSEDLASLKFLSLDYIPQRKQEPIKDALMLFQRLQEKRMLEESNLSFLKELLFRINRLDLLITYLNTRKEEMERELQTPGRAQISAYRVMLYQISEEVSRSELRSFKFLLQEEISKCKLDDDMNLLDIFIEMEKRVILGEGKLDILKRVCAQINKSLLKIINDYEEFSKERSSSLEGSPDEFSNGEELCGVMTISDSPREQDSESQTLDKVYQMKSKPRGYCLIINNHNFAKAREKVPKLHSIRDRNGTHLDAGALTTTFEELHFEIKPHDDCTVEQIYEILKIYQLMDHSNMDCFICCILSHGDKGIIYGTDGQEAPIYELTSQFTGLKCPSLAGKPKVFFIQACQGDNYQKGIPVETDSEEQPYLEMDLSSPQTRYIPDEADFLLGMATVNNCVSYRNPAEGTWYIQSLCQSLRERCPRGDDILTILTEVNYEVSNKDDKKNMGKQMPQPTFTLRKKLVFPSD
# UniProt Q9GZY4: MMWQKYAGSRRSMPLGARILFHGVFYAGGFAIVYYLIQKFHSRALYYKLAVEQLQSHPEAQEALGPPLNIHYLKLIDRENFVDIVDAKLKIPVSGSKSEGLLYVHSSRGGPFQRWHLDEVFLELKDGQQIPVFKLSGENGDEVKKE
# UniProt Q9H7E9: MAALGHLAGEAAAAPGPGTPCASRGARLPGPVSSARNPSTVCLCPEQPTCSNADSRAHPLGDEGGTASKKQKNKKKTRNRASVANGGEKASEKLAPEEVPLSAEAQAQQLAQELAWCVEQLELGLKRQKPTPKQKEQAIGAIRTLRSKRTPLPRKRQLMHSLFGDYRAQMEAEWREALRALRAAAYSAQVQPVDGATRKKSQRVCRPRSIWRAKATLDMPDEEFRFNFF
# UniProt Q9NSI2: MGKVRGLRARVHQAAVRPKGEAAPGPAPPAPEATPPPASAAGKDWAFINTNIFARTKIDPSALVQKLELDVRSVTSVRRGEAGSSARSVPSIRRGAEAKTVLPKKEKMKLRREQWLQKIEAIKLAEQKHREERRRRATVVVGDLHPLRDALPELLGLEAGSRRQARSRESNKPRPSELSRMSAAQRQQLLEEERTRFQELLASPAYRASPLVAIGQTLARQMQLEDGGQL
# This is one part of the list.
# Compound: COc1ccc(Cn2ccc3ccc(C(=O)NO)cc32)cc1
# Assay: dose-dependent thermal stabilisation call (2D-TPP, DLPTP, 10% FDR) (binary (1 = stabilised)); higher = stabilised by the compound
# Details: system: HL-60 intact cells; concentration range 0.04-10 µM
row,Target,dose-dependent thermal stabilisation call
1,C16ORF70 (UniProt Q9BSU1),inactive: 0
2,CAST (UniProt P20810),inactive: 0
3,C19ORF61 (UniProt Q9H0W8),inactive: 0
4,C1ORF123 (UniProt Q9NWV4),inactive: 0
5,C2ORF28 (UniProt Q6UW56),inactive: 0
6,C13ORF37 (UniProt Q08AG7),inactive: 0
7,C1ORF77 (UniProt Q9Y3Y2),inactive: 0
8,C16ORF88 (UniProt Q1ED39),inactive: 0
9,CARM1 (UniProt Q86X55),inactive: 0
10,C8ORF76 (UniProt Q96K31),inactive: 0
11,C4ORF8 (UniProt P78312),inactive: 0
12,C15ORF58 (UniProt Q6ZNW5),inactive: 0
13,C1ORF144 (UniProt Q7Z422),inactive: 0
14,CBR1 (UniProt P16152),inactive: 0
15,C1ORF52 (UniProt Q8N6N3),inactive: 0
16,C9ORF41 (UniProt Q8N4J0),inactive: 0
17,C14ORF1 (UniProt Q9UKR5),inactive: 0
18,C6ORF115 (UniProt Q9P1F3),active: 1
19,C15ORF41 (UniProt Q9Y2V0),inactive: 0

# As entered above:
# C1ORF144 (UniProt Q7Z422) – dose-dependent thermal stabilisation call: inactive: 0
# CARM1 (UniProt Q86X55) – dose-dependent thermal stabilisation call: inactive: 0
# C15ORF41 (UniProt Q9Y2V0) – dose-dependent thermal stabilisation call: inactive: 0

# (listing goes on)

row,Target,dose-dependent thermal stabilisation call
1,C18ORF55 (UniProt Q9BVV7),inactive: 0
2,C9ORF82 (UniProt Q9H8G2),inactive: 0
3,C8ORF38 (UniProt Q330K2),inactive: 0
4,C17ORF80 (UniProt Q9BSJ5),inactive: 0
5,C19ORF6 (UniProt Q4ZIN3),inactive: 0
6,C1ORF198 (UniProt Q9H425),inactive: 0
7,C6ORF47 (UniProt O95873),inactive: 0
8,C19ORF59 (UniProt Q8IX19),active: 1
9,C18ORF22 (UniProt Q8N0V3),inactive: 0
10,C1ORF156 (UniProt O95568),inactive: 0
11,C21ORF45 (UniProt Q9NYP9),inactive: 0
12,CASK (UniProt O14936),inactive: 0
13,C2ORF3 (UniProt P16383),inactive: 0
14,CASP8 (UniProt Q14790),inactive: 0
15,C7ORF44 (UniProt Q9GZY4),inactive: 0
16,C20ORF43 (UniProt Q9BY42),inactive: 0
17,C2ORF43 (UniProt Q9H6V9),inactive: 0
18,C8ORF33 (UniProt Q9H7E9),inactive: 0
19,C21ORF70 (UniProt Q9NSI2),inactive: 0
